# The comparison behind a weaker result is the experiment's own reference, which may not be listed here. Tags and fusion partners may be left off the protein sequences shown. Construct, isoform or probe ends are uncertain for at least one entry. For part of these data: At least one verdict was read from the data and is not stated in words by the source.
# What was measured:
# [1] = target: T1, FAAP24 HhH domain (UniProt Q9BTP7); test: NMR; conditions: NMR: 50 mM NaHPO4 pH 6.5, 100 mM NaCl, 8% D2O, 298 K, recombinant protein, residues 139-215, protein details: N-terminal His
# T1 sequence (looked up): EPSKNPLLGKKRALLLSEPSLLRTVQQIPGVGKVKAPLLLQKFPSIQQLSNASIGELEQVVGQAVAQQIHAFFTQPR
# [2] = target: T1, FAAP24 HhH domain; test: EMSA; conditions: 400 mM NaCl, EMSA: 10 mM Tris pH 7.0, 10 mM NaCl (high salt: 50 mM NaHPO4, 400 mM NaCl), 5% glycerol, 1 mM DTT, 20 ug/ml BSA, on ice, gel at 4 C, recombinant protein, residues 139-215, protein details: N-terminal His
sequence,measurement,setting,value
GGCGGGGCGGGGGCGGCGGG (double strand) [ds20],binding result,"[1]; 400 mM NaCl, smaller CSPs",binds more weakly
GGGCGGCGGGCGGATAGATTGAAATCTTAG / CCCGCCGCCC [3' extension],binding result,"[1]; 100 mM NaCl, smaller CSPs, lower affinity",binds more weakly
GGGCGGCGGGTTTTTTTTTT / TTTTTTTTTTCCCGCCGCCC [F10 splayed arm],binding result,"[1]; 400 mM NaCl, ~10-20% of CSPs at 100 mM NaCl",binds more weakly
GGGCGGCGGGTTTTTTTTTTGGCGGGGCGG (double strand) [ds30],binding result,"[2]; too weak to quantify, label: radiolabeled",binds more weakly
GGGCGGCGGGTTTTTTTTTTGGCGGGGCGG / CCGCCCCGCCTTTTTTTTTTCCCGCCGCCC [B10 bubble],binding result,[2],binds more weakly
TGCGAATTCATATGCAATATTCAGTGGCTGAGCTACTGG [ss39],binding result,"[2]; too weak to quantify, label: radiolabeled, single-stranded DNA",binds more weakly

# Reference: publication PMC3711432, “The Fanconi anemia associated protein FAAP24 uses two substrate specific binding surfaces for DNA recognition”
